# Measured values from PMC7862700.
# This is a selection; strong and weak results do not stand in their true shares. At the low end of the ranking the order means little.
# Molecular target: SPI1 (UniProt P17947)
# Test: DAPPL (digital affinity profiling via proximity ligation, sequencing)
# Conditions: 10 mM Tris-HCl pH 7.5, 50 mM NaCl, 1 mM DTT, 4% glycerol, room temperature, 30 min; GST-TFs on glutathione beads, 16-mer random dsDNA library, 0.1% …; high values mean tight binding; double strand, one strand shown; scale: fold enrichment (6-mer frequency, TF over GST control)
row,Sequence,binding signal
1,AGATCT,0.96
2,AAGGGC,0.946
3,GTAAGC,0.938
4,TCTCCA,1.57
5,AGGACC,0.87
6,TACGAG,0.904
7,TTGGTC,1.08
8,TGAACG,0.958
9,CCGTTA,0.932
10,GCACTC,1.35
11,CATAAA,0.992
12,CGCCCA,0.916
13,CGAGGT,0.921
14,ACCGCA,1.2
15,TCAAGT,1.06
16,CATGGT,1.27
17,AAACAG,1.13
18,GCAATA,0.959
19,GAAAGC,0.884
20,ACTCGA,1.26

# Exported with tabs: part of the list above.
row	Sequence	binding signal
1	AGATCT	0.96
2	AAGGGC	0.946
8	TGAACG	0.958
13	CGAGGT	0.921
14	ACCGCA	1.2
15	TCAAGT	1.06
18	GCAATA	0.959
20	ACTCGA	1.26

# (listing goes on)

row,Sequence,binding signal
1,CTATTT,1.76
2,CTCGAC,1.34
3,AATTAT,1.18
4,GTACTG,1.04
5,ACGTTT,1.12
6,CCAAGA,0.91
7,TTCCAC,1.42
8,AAGGGA,1.07
9,CAGAAA,0.998
10,TGGAAC,0.977
11,TCGGCT,0.909
12,GTGGTC,0.914
13,GCAGCA,0.918
14,AGTAAT,1.17
15,GAAGTC,1.51
16,CAGAAG,0.797
17,GCCTGC,1.06
18,TTACAG,1.11
19,ATCTTA,1.01
